“And” between values parts separate entries of the source, which are not always exact repeats. Identical values can stand only once. Inconclusive results, whose numbers are uncertain, are shown with a selection of clear calls. For some of these results: Potencies of inconclusive entries are doubtful fits and often do not repeat. A structure can be active in one record and inactive in another. The source made the active and inactive calls. Rule for the calls: active = hit-call score of the fitted dose curve at least 0.9, where 1 is the maximum; inconclusive = response in the unintended direction; inactive = score below 0.9.
Experiments:
[1] = ATG_GAL4_TRANS: Attagene TRANS-FACTORIAL HepG2 Assay for GAL4 (Internal Marker) (AID 2282976); conditions: HepG2 Attagene TRANS GAL4 internal marker reporter
Procedure, shortened: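 Background-control readout: GAL4-UAS reporter transcript in transiently transfected HepG2 cells after 24 h compound exposure. Measured by RT-PCR, 6-FAM primer extension, HpaI digest and capillary electrophoresis; gain-of-signal fit versus DMSO.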

Sequences of proteins named here, by UniProt entry; tags and fusion partners are left off. A change or cut given only in a name is not applied to a line headed by its entry.
UniProt Q13133, whole entry, looked up: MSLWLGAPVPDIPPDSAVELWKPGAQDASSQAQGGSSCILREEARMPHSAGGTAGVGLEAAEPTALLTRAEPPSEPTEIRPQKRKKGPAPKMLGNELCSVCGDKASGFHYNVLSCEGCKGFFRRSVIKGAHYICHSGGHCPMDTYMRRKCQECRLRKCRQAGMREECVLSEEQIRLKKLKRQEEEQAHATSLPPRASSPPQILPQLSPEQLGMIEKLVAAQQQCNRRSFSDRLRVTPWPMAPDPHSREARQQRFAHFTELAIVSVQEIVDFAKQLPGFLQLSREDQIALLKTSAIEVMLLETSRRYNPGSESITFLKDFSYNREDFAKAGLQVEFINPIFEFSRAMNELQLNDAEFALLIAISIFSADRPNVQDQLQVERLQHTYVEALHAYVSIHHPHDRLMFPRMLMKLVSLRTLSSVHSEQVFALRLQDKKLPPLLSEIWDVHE
UniProt P43354, whole entry, looked up: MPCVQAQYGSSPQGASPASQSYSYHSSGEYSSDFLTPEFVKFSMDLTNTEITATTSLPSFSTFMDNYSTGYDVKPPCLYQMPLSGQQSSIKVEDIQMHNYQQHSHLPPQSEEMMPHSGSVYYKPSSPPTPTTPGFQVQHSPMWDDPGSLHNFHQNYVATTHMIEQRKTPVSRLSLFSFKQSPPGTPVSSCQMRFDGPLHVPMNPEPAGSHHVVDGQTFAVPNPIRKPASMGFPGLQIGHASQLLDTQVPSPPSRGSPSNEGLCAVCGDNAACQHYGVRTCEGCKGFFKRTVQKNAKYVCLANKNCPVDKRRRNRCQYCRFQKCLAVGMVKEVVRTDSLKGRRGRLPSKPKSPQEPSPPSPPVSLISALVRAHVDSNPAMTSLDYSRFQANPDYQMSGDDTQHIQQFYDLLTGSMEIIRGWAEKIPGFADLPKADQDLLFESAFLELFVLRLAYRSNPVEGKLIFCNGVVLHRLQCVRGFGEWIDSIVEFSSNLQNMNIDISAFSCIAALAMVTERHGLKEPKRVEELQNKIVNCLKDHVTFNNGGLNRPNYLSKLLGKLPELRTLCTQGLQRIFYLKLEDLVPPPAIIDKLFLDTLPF
UniProt Q07869: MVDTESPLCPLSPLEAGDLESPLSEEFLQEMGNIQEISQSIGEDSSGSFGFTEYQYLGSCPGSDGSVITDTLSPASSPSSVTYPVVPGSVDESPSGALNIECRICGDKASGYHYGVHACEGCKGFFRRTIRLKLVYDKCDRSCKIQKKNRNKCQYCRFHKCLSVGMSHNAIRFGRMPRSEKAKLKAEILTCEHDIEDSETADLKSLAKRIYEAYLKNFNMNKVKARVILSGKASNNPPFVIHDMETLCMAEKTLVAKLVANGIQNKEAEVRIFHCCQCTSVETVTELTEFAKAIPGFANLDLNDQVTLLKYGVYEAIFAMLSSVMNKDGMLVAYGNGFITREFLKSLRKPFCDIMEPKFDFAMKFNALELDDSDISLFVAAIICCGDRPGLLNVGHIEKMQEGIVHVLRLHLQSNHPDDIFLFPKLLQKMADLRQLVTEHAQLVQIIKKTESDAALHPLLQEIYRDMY
UniProt P10826, whole entry, looked up: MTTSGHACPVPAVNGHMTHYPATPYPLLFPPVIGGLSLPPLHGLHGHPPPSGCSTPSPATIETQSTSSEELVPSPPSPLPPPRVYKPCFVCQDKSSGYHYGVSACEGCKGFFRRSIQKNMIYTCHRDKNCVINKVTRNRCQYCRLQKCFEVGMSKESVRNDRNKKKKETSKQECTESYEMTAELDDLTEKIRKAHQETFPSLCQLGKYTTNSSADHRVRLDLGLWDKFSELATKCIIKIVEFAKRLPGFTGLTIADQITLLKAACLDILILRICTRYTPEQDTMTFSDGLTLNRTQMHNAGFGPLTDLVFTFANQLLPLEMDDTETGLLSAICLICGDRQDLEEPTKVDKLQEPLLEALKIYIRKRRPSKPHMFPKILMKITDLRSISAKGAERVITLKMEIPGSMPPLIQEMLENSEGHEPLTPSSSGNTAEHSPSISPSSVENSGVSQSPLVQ
UniProt P10276, whole entry, looked up: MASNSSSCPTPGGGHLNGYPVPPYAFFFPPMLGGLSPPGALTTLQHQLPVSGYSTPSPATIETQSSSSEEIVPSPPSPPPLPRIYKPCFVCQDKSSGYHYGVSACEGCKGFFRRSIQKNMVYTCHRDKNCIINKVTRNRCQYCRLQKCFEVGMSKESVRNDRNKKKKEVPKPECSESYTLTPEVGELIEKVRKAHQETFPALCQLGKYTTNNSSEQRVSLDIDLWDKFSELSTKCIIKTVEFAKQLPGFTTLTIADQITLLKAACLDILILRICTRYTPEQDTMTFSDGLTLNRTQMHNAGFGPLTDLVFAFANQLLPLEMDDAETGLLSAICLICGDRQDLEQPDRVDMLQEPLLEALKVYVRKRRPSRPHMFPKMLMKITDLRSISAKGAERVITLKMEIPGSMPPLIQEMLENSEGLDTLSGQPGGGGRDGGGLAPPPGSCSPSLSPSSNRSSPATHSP
UniProt P51449: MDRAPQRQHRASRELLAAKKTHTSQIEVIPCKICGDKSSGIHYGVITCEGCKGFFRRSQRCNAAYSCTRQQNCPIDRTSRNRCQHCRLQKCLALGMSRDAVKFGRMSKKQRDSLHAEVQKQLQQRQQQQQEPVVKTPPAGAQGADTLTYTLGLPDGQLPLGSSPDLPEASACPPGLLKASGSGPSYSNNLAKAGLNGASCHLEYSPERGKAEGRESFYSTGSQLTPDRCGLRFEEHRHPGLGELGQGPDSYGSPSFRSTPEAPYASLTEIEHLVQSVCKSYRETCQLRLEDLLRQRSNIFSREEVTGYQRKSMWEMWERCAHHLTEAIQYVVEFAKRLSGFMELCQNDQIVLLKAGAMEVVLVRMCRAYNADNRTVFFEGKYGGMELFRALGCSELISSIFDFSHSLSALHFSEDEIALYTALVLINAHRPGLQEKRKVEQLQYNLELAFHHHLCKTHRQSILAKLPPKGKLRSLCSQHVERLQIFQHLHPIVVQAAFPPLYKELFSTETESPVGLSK
UniProt P19793: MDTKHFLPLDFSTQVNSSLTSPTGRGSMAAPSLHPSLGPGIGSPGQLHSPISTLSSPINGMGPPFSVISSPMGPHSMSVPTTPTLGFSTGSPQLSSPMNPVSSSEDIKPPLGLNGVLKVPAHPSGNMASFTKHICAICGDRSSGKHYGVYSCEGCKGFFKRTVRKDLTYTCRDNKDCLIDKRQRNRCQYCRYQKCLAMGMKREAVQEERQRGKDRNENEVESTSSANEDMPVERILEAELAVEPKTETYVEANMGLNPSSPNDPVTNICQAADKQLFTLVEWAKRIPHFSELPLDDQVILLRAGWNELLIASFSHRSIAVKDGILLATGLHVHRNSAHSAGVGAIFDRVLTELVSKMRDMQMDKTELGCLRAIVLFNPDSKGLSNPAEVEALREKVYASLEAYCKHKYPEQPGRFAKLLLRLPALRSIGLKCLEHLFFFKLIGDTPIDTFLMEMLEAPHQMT
UniProt P41235: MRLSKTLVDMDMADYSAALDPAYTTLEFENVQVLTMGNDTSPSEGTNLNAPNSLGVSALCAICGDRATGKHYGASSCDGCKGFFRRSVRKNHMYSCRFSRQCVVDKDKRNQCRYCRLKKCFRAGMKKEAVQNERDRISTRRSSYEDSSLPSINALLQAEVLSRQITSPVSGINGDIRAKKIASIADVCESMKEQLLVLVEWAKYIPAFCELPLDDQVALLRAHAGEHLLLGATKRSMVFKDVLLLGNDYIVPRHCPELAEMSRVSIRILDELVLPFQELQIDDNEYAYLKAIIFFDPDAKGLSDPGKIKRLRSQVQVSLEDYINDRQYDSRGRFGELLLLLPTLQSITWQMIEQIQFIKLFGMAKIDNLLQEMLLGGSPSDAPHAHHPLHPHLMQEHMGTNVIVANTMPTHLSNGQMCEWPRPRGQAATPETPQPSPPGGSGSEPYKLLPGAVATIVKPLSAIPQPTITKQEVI
UniProt Q92753: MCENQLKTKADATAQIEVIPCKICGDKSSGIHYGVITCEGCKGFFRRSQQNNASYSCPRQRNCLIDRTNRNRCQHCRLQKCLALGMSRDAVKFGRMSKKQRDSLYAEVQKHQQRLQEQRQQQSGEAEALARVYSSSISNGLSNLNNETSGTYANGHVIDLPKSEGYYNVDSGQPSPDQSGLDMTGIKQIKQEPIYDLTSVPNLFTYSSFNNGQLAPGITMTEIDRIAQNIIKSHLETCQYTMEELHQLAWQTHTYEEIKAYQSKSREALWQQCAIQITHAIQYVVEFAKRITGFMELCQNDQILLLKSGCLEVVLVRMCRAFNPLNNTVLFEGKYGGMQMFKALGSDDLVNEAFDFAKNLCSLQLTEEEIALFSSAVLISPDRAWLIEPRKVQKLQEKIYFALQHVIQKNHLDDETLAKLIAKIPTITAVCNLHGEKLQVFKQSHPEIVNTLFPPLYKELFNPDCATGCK
UniProt P28702: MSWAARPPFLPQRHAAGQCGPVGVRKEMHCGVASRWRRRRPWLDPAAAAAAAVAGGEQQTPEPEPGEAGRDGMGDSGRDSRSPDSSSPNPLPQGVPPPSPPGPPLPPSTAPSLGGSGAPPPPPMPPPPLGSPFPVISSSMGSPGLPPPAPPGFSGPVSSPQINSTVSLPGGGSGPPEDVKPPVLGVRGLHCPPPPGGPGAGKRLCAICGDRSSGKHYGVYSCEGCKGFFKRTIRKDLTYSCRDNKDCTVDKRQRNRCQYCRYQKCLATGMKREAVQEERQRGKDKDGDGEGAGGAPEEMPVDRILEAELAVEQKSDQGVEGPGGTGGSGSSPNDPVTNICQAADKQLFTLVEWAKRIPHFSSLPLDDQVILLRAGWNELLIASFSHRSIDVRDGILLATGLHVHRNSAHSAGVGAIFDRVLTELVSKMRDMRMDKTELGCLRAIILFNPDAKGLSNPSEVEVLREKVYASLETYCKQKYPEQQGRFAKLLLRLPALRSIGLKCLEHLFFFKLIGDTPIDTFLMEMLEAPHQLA
UniProt P10827: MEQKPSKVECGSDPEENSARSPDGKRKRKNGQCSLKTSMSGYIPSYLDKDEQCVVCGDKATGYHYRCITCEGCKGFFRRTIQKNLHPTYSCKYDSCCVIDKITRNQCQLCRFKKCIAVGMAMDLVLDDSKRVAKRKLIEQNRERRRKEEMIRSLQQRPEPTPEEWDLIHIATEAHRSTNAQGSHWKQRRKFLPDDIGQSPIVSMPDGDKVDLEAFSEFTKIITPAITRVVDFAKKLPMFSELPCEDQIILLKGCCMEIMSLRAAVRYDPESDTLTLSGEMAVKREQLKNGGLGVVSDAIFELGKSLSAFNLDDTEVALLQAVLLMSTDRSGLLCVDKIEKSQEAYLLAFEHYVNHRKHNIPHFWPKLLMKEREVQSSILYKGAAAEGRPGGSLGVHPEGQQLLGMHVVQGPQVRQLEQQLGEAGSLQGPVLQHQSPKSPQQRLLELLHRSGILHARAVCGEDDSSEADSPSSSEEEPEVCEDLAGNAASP
UniProt P11473: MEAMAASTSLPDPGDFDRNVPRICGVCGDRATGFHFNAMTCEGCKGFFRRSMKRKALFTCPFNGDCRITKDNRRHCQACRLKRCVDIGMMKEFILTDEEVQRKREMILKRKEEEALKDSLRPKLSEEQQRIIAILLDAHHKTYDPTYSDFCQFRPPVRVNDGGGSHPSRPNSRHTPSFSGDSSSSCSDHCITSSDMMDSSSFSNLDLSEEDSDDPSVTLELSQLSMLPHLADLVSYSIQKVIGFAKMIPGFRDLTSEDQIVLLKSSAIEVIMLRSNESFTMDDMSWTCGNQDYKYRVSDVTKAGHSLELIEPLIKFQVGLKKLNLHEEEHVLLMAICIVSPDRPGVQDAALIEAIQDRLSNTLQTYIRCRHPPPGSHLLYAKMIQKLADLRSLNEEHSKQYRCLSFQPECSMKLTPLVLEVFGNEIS
UniProt P13631, whole entry, looked up: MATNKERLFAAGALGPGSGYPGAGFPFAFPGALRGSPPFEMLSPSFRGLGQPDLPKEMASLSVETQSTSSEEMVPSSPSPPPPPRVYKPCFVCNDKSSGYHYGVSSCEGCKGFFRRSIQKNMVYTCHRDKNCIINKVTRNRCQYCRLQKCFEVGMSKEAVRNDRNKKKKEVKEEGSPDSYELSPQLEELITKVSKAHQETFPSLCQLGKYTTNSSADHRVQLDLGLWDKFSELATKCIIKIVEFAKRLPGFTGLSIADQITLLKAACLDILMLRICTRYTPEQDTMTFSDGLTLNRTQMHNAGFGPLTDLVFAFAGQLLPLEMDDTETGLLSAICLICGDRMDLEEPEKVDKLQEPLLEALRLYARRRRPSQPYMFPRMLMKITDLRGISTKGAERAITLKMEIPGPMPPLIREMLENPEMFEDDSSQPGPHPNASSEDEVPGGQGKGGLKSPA

[2] = biological target: Oxysterols receptor LXR-alpha (Homo sapiens) (UniProt Q13133); assay: ATG_LXRa_TRANS: Attagene TRANS-FACTORIAL HepG2 Assay for human Liver X Receptor alpha (LXRa) (AID 2282980); conditions: HepG2 Attagene TRANS reporter, LXRa transactivation
Procedure, shortened: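 HepG2 cells transiently transfected with GAL4-UAS reporter units for chimeric NR-Gal4 proteins, exposed to chemicals for 24 h. Reporter mRNA quantified by RT-PCR and capillary electrophoresis; gain of signal fitted relative to DMSO.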

[3] = biological target: Nuclear receptor subfamily 4 group A member 2 (Homo sapiens) (UniProt P43354); assay: ATG_NURR1_TRANS: Attagene TRANS-FACTORIAL HepG2 Assay for human Nuclear Receptor Related Protein 1 (NURR1) (AID 2282985); conditions: HepG2 Attagene TRANS reporter, mRNA readout
Procedure, shortened: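 Cells: HepG2, transiently transfected. Exposure: 24 h. Detection: fluorescence of labelled RT-PCR products separated by capillary electrophoresis; upward fit versus DMSO.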

[4] = biological target: human Peroxisome Proliferator-activated Receptor alpha (PPARa), PPARA (gene 5465) (UniProt Q07869); assay: ATG_PPARa_TRANS: Attagene TRANS-FACTORIAL HepG2 Assay for human Peroxisome Proliferator-activated Receptor alpha (PPARa) (AID 2283001);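 for AC50: potency for gain of reporter signal over DMSO so agonist or activator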
Procedure, shortened: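 Reporter transcripts from GAL4-UAS units in transfected HepG2 were quantified 24 h after dosing. Detection used reverse transcription, PCR, fluorescent primer extension and capillary electrophoresis, with DMSO as baseline.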

[5] = biological target: human Retinoic Acid Receptor beta (RARb), RARB (gene 5915) (UniProt P10826); assay: ATG_RARb_TRANS: Attagene TRANS-FACTORIAL HepG2 Assay for human Retinoic Acid Receptor beta (AID 2283004)
Procedure, shortened: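 HepG2 cells were transiently transfected with GAL4-UAS reporter units that report activity of exogenous chimeric NR-Gal4 proteins, then exposed to compound for 24 h. Reporter mRNA was quantified by RT-PCR with capillary electrophoresis fluorescence, as gain of signal over DMSO.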

[6] = biological target: Retinoic acid receptor alpha (Homo sapiens) (UniProt P10276); assay: ATG_RARa_TRANS: Attagene TRANS-FACTORIAL HepG2 Assay for human Retinoic Acid Receptor alpha (RARa) (AID 2283005);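 for AC50: potency for increased reporter signal meaning RARa activation over DMSO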
Procedure, shortened: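 Reporter transcripts, measured by RT-PCR with fluorescent labeling and capillary electrophoresis after 24 h dosing, reflect activity of an exogenous human RARa–GAL4 fusion in transiently transfected HepG2. Fitted for increase relative to DMSO.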

[7] = biological target: human RAR-related Orphan Receptor gamma (RORg), RORC (gene 6097) (UniProt P51449); assay: ATG_RORg_TRANS: Attagene TRANS-FACTORIAL HepG2 Assay for human RAR-related Orphan Receptor gamma (RORg) (AID 2283011);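 for AC50: potency for induction of reporter transcripts above DMSO so activators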
Procedure, shortened: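 HepG2 cells transiently transfected with GAL4-UAS reporter units and chimeric RORg-Gal4 construct; after 24 h chemical exposure, reporter mRNA measured by RT-PCR with fluorescent capillary electrophoresis, gain of signal fitted against DMSO.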

[8] = biological target: Retinoic acid receptor RXR-alpha (Homo sapiens) (UniProt P19793); assay: ATG_RXRa_TRANS: Attagene TRANS-FACTORIAL HepG2 Assay for human Retinoid X Receptor alpha (RXRa) (AID 2283012)
Procedure, shortened: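 HepG2 cells transiently transfected with multiplexed GAL4-UAS reporter units and chimeric NR-GAL4 fusions, dosed 24 h. Reporter mRNA measured by RT-PCR, FAM labelling, HpaI digestion and capillary electrophoresis; gain-of-signal fitted relative to DMSO baseline.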

[9] = TOX21_p53_BLA_p2_viability: Viability Assessment in the Tox21 HCT-116 p53 Agonism Beta-lactamase Assay, Phase 2 (AID 2283591);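 note: compound exposure lasted 16 h at 37 °C; actives lower the ATP signal meaning cytotoxicity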
Procedure, shortened: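 Cytotoxicity readout: CellTiter-Glo ATP luminescence, 30 min at room temperature, after the beta-lactamase read. Cells were HCT116 exposed 16 h at 37C to compounds pin-transferred at 217-fold dilution from DMSO stocks.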

[10] = TOX21_p53_BLA_p3_viability: Viability Assessment in the Tox21 HCT-116 p53 Agonism Beta-lactamase Assay, Phase 3 (AID 2283593);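 note: cells exposed to compound for 16 h before reading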
Procedure, shortened: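 Cellular ATP was quantified by CellTiter-Glo luminescence, read after 30 min at room temperature. Beforehand, HCT116 cells (4000/well) received compound 5 h post-seeding, 217-fold diluted from DMSO, then incubated 16 h at 37C.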

[11] = TOX21_p53_BLA_p4_viability: Viability Assessment in the Tox21 HCT-116 p53 Agonism Beta-lactamase Assay, Phase 4 (AID 2283597);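 note: hits lower the luminescence signal meaning cytotoxicity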
Procedure, shortened: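 HCT-116 p53-bla cells, 4000/well, dosed after 5 h attachment and incubated 16 h at 37 °C, 5% CO2. Viability from CellTiter-Glo ATP luminescence after 30 min at room temperature, taken after the beta-lactamase read; loss of signal indicates cytotoxicity.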

[12] = biological target: Cellular tumor antigen p53 (Homo sapiens) (UniProt P04637); assay: TOX21_p53_BLA_p5_ratio: Tox21 HCT-116 p53 Agonism Beta-lactamase Assay, Ratio, Phase 5 (AID 2283599)
Procedure, shortened: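 Beta-lactamase reporter ratio (blue 460 nm over green 530 nm, 405 nm excitation) after 2 h CCF4-AM loading, in HCT-116 cells exposed 16 h at 37 C to compounds pinned at 217-fold dilution. Increases relative to DMSO baseline scored.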

[13] = biological target: Hepatocyte nuclear factor 4-alpha (Homo sapiens) (UniProt P41235); assay: ATG_HNF4a_TRANS: Attagene TRANS-FACTORIAL HepG2 Assay for human Hepatocyte Nuclear Factor 4 alpha (HNF4a) (AID 2282982); conditions: HepG2 HNF4a transactivation reporter, mRNA readout
Procedure, shortened: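 Transfected HepG2 reporter cells are dosed for 24 h; reporter RNA is reverse-transcribed, amplified, fluorescently labelled and HpaI-digested before CE sizing. Positive-direction fit against DMSO.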

[14] = biological target: human RAR-related Orphan Receptor beta (RORb), RORB (gene 6096) (UniProt Q92753); assay: ATG_RORb_TRANS: Attagene TRANS-FACTORIAL HepG2 Assay for human RAR-related Orphan Receptor beta (RORb) (AID 2283010);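 for AC50: potency for increased reporter mRNA meaning activation of RORb-Gal4 chimera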
Procedure, shortened: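 HepG2 cells were transiently transfected with multiplexed GAL4-UAS reporter units expressing chimeric nuclear receptor–GAL4 proteins, then dosed for 24 h. Reporter mRNA was quantified by RT-PCR with fluorescent labelling and capillary electrophoresis; gain of signal was fitted relative to DMSO.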

[15] = biological target: human Retinoid X Receptor beta (RXRb), RXRB (gene 6257) (UniProt P28702); assay: ATG_RXRb_TRANS: Attagene TRANS-FACTORIAL HepG2 Assay for human Retinoid X Receptor beta (RXRb) (AID 2283013)
Procedure, shortened: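 HepG2 cells transiently transfected with multiplexed reporter units driven by GAL4-UAS and exogenous chimeric NR-Gal4 proteins; treated 24 h. Reporter mRNA measured by RT-PCR, 6-FAM labelling and capillary electrophoresis; gain-of-signal fitted versus DMSO baseline.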

[16] = biological target: human Thyroid Receptor alpha (THRa1), THRA (gene 7067) (UniProt P10827); assay: ATG_THRa1_TRANS: Attagene TRANS-FACTORIAL HepG2 Assay for human Thyroid Receptor alpha (THRa1) (AID 2283014)
Procedure, shortened: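 HepG2 cells transiently transfected with chimeric NR-Gal4 and GAL4-UAS reporter units, dosed 24 h. Reporter mRNA quantified by RT-PCR, fluorescent labeling, HpaI digestion and capillary electrophoresis; gain-of-signal fit versus DMSO.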

[17] = biological target: human Vitamin D Receptor (VDR), VDR (gene 7421) (UniProt P11473); assay: ATG_VDR_TRANS: Attagene TRANS-FACTORIAL HepG2 Assay for human Vitamin D Receptor (VDR) (AID 2283022)
Procedure, shortened: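 HepG2 cells were transiently transfected with GAL4-UAS reporter units and a chimeric VDR-Gal4 construct, then dosed for 24 hours. Reporter mRNA was quantified by RT-PCR, fluorescent labeling, HpaI digestion and capillary electrophoresis; gain of signal analysed vs DMSO.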

[18] = biological target: Retinoic acid receptor RXR-alpha (Homo sapiens) (UniProt P19793); assay: OT_NURR1_NURR1RXRa_0480: Odyssey Thera (OT) 8-hour HEK293T Protein Complementation Assay for Nurr1/retinoid X receptor (RXR) (AID 2283385)
Procedure, shortened: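 HEK293T cells expressing Nurr1 and RXRα fused to reporter fragments were dosed with compound for 8 hours. Complex formation was read as fluorescence intensity and analysed as gain of signal against DMSO as baseline.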

[19] = biological target: Retinoic acid receptor RXR-alpha (Homo sapiens) (UniProt P19793); assay: OT_NURR1_NURR1RXRa_1440: Odyssey Thera (OT) 24-hour HEK293T Protein Complementation Assay for Nurr1/retinoid X receptor (RXR) (AID 2283386)
Procedure, shortened: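 HEK293T cells were dosed with compound and read 24 h later by fluorescence intensity in a protein-fragment complementation format, where Nurr1–RXRα interaction reconstitutes a split reporter. Activity was fitted as gain of signal relative to DMSO baseline.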

[20] = biological target: human Retinoic Acid Receptor gamma (RARg), RARG (gene 5916) (UniProt P13631); assay: ATG_RARg_TRANS: Attagene TRANS-FACTORIAL HepG2 Assay for human Retinoic Acid Receptor gamma (RARg) (AID 2283009);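 for AC50: AC50 is for reporter induction above DMSO meaning RARg activation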
Procedure, shortened: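 HepG2 cells transiently transfected with multiplexed reporter units expressing chimeric RARg-GAL4 and GAL4-UAS-driven reporters; 24 h compound exposure. Reporter mRNA quantified by RT-PCR with fluorescent labelling and capillary electrophoresis; gain-of-signal fitted relative to DMSO baseline.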

Measured: AC50

Nc1ccc(-c2ccc(N)c(Cl)c2)cc1Cl
inactive: [13] | [4] | [14] | [17] | [10] | [11]
inconclusive: [1] 100 µM | [2] 100 µM | [7] 16.6 µM | [16] 100 µM | [9] 1.19 µM
active: [15] 11.2 µM | [12] 16.3 µM and 43.3 µM

O=NN1CCCC1
inconclusive: [3] 1.37 µM | [5] 100 µM | [6] 100 µM | [14] 100 µM | [8] 12.6 µM | [15] 100 µM | [17] 100 µM | [19] 50 µM | [9] 1.38 µM | [10] 47.9 µM | [11] 484 nM and 47.9 µM
inactive: [1] | [2] | [4] | [7] | [18] | [9] | [12]

CC1CCCC1.[C-]#[O+].[C-]#[O+].[C-]#[O+].[Mn]
inactive: [5] | [20] | [8] | [15] | [18] | [9]
inconclusive: [1] 61.5 µM | [13] 110 µM | [6] 1.68 µM | [14] 61.5 µM | [7] 61.5 µM | [9] 46.1 µM | [10] 0.037 µM | [12] 46.1 µM
